# Results from patent US20250042994A1.
# Where a chain is given by its changes, count along the chain named. These are yes or no findings as the source states them, for the method shown. For some assays here: Binding can be weak; no strength is given.
# B1: F3.121.4-L1H1 (antibody, mouse IgG1, kappa, V domains shown)
# VH: EVQLVQSGAEVKKPGASVKVSCKASGYTFTNYWMHWVRQAPGQRLEWMGEIDPSDNYANYNQEFQGRVTITVDKSASTAYMELSSLRSEDTAVYYCARHDGYFGALDYWGQGTTVTVSS
# VL: EIVLTQSPATLSLSPGERATLSCSASSSISSNYLHWYQQKPGQAPRFLIYRTSNLASGIPARFSGSGSGTDFTLTISSLEPEDFAVYYCQQASSIPRMFTFGQGTKLEIKR
# B2: F3.121.4-L1H2 (antibody, mouse IgG1, kappa, V domains shown)
# VH: B1 VH with R44G
# VL: B1 VL
# B3: F3.121.4-L2H2 (antibody, mouse IgG1, kappa, V domains shown)
# VH: B1 VH with R44G
# VL: EIVLTQSPDFQSVTPKEKVTITCSASSSISSNYLHWYQQKPDQSPKLLIKRTSNLASGVPSRFSGSGSGTDFTLTINSLEAEDAATYYCQQASSIPRMFTFGQGTKLEIKR
# B4: F3.121.4-L3H1 (antibody, mouse IgG1, kappa, V domains shown)
# VH: B1 VH
# VL: B3 VL with L47F, K50Y
# B5: F3.121.4-L3H2 (antibody, mouse IgG1, kappa, V domains shown)
# VH: B1 VH with R44G
# VL: B3 VL with L47F, K50Y
# B6: F3.121.4-L2H1 (antibody, mouse IgG1, kappa, V domains shown)
# VH: B1 VH
# VL: B3 VL
# B7: F3.124.7 (antibody, human IgG1, V domains shown)
# VH: EVQLQQSGPVLVKPGASVKMSCKASGYTFTDYYMNWVKQRHGKSLEWIGISNPYNGGTSYNQKFKDKATLTVDKSSSTAYMELNSLTSEDSAVYYCAREGGTAQPTSGMDYWGQGTSVTVSS
# VL: NIMMTQSPSSLAVSAGEKVTMSCKSSQSVLYSSNQKNYLAWYQQKPGQSPKLLIYWASTRESGVPDRFTGSGSGTDFTLTISSVQPEDPAVYYCHQYRSSYTFGGGTKLEIK
# B8: F5.11.2 (antibody, human IgG1, V domains shown)
# VH: EVQLVESGGDLVKPGGSLKLSCAASGFTFSSYGMSWVRQTPDKRLEWVATISHGGSYTHYPDSVKGRFTISRDNAKNTLYLQMNSLKSEDTAMYYCVRLPITTVEAPYFFDYWGQGTTLTVSS
# VL: DIQMTQTTSSLSASLGDRVTISCRASQDIRNYLNWYQQKPDGTVKLLIYYTSILHSGVPSRFSGSGSGTDYSLTINNLEQEDVATYFCQQGNTLYTFGGGTEVELR
# Molecular target: monkey CD19 protein (monkey)
# Test: ELISA
row,binding,Binder
1,no binding,B1
2,no binding,B2
3,no binding,B3
4,no binding,B4
5,no binding,B5
6,no binding,B6

# Molecular target: monkey CD19 protein (monkey)
# Test: ELISA, coated monkey CD19
row,binding,Binder
1,binds,B7
2,binds,B8
